Measured values as given in article PMC12824153.
These are yes or no findings as the source states them, for the method shown. In cells and extracts the contact can be indirect. Some entries that bind do so weakly or less than the wild type.

Sequences of proteins named here, by UniProt entry; tags and fusion partners are left off.
UniProt Q8NEV1: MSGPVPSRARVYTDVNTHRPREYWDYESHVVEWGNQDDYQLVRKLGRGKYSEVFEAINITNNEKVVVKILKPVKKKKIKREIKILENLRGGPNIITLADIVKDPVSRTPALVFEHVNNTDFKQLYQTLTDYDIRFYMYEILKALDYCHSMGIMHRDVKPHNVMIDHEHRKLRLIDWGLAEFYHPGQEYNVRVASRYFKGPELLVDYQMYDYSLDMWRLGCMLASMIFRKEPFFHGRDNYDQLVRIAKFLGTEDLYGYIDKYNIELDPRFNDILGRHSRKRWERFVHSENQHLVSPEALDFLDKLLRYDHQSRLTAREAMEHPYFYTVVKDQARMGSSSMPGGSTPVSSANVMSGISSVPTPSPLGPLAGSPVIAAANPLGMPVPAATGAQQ

Target: T1, SFB-IKKβ (kappa-B kinase subunit beta) (UniProt O14920)
T1 sequence: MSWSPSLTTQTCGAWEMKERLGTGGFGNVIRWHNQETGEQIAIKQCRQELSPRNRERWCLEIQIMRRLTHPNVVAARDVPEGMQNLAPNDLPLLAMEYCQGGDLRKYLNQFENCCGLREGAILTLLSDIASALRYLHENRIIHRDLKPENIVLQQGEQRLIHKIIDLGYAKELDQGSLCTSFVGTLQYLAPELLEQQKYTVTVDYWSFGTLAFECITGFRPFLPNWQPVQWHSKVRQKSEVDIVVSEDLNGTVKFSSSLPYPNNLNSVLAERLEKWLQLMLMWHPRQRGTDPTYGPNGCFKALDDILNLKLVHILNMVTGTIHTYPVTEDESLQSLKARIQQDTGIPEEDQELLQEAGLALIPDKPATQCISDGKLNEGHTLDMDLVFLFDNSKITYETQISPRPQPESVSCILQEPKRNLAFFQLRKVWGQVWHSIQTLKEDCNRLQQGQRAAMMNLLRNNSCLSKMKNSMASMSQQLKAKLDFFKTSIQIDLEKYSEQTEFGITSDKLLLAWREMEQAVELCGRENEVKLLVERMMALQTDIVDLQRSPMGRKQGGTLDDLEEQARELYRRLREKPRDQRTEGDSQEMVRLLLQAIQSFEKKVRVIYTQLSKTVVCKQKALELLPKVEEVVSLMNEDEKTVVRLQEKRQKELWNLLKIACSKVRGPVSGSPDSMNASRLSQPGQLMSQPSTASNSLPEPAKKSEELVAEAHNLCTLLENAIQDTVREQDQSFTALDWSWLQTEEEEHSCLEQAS
Assay: co-IP; A549 cells co-expressing HA-CSK23 and SFB-IKKβ under compression; mild co-IP buffer (50 mM Tris-HCl pH 7.5, 1% Triton X-100, 0.01% SDS, 150 mM NaCl, 1 mM DTT, 0.5 mM EDTA); Flag-tagged proteins precipitated with anti-Flag M2 agarose; cells also treated with W7 (interaction attenuated), FK506 (partially abrogated) or MDL-28170 (no significant effect)

binding: binds
Substance: HA-CSK23 (from UniProt Q8NEV1 1-391) (enzyme)
